This passage reports binding results from publication PMC7198492.

Chains of the proteins cited; added tags and fusions are not shown.
UniProt Q14790: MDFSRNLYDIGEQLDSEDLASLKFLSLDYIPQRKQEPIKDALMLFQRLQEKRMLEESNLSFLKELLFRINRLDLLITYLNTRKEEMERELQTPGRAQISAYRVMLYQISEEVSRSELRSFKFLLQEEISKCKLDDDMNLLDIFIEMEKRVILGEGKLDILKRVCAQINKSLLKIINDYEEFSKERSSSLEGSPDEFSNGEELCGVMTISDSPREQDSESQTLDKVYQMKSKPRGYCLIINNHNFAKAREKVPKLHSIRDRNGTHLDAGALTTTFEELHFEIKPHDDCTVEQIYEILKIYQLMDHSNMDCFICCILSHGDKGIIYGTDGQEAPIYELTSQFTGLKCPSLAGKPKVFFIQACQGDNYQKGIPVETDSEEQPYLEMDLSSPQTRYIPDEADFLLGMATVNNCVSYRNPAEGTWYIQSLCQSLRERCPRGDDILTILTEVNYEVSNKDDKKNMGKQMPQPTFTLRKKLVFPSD

These are yes or no findings as the source states them, for the method shown. In cells and extracts the contact can be indirect. Some binding calls cover weakened binding; strength is not graded here.

The test has as its target caspase-8 (human, endogenous in HT-29) (human (endogenous in HT-29)) (UniProt Q14790). In words: co-IP; whole-cell lysates of control and DAPK1-knockdown HT-29 cells treated with zVAD+BV6+TNF (anti-FADD IP) or zVAD+BV6 (anti-caspase-8 IP); Protein G Mag Sepharose, WCE buffer, overnight at 4 °C; Western blot. On the technique in general: Immunoblotting shows a protein as a band on a membrane.

B1: MLKL (human, endogenous in HT-29) (protein, UniProt Q8NB16 1-471)
chain: MENLKHIITLGQVIHKRCEEMKYCKKQCRRLGHRVLGLIKPLEMLQDQGKRSVPSEKLTTAMNRFKAALEEANGEIEKFSNRSNICRFLTASQDKILFKDVNRKLSDVWKELSLLLQVEQRMPVSPISQGASWAQEDQQDADEDRRAFQMLRRDNEKIEASLRRLEINMKEIKETLRQYLPPKCMQEIPQEQIKEIKKEQLSGSPWILLRENEVSTLYKGEYHRAPVAIKVFKKLQAGSIAIVRQTFNKEIKTMKKFESPNILRIFGICIDETVTPPQFSIVMEYCELGTLRELLDREKDLTLGKRMVLVLGAARGLYRLHHSEAPELHGKIRSSNFLVTQGYQVKLAGFELRKTQTSMSLGTTREKTDRVKSTAYLSPQELEDVFYQYDVKSEIYSFGIVLWEIATGDIPFQGCNSEKIRKLVAVKRQQEPLGEDCPSELREIIDECRAHDPSVRPSVDEILKKLSTFSK
On to B1, for which the binding result is on record as “binds”.
